Some entries share one result that the patent states for a list of compounds.
Tests used:
[1] = test system: Tetranychus urticae Koch (two spotted spider mite); test: Control effect test for Tetranychus urticae Koch (two spotted spider mite); assay type: in vivo; conditions: active ingredient concentration 4 ppm; soybean seedlings with 35 female adults immersed; 25° C.; after 13 days; no replication
Method: A wettable powder prepared based on Formulation Example 2 was diluted with water into an active ingredient concentration of 4 ppm. In the solution were immersed soybean seedlings which had been inoculated with 35 female adults of two spotted spider mite. The soybean seedlings were dried in the air and placed in a thermostat of 25° C. After 13 days, the number of living female adults was examined and the control value of the active ingredient was determined using the calculation formula of the following Mathematical Expression 1. This test was conducted with no replication. Control value=100−[(number of living female adults after 13 days, in treated seedlings)/(number of living female adults after 13 days, in non-treated seedlings)]×100 [Mathematical Expression 1]
Tests similar to the above were conducted using, as comparative compounds, compound Nos. 22 and 23 described in JP-A-1975-29744, compound Nos. 3, 4, 5, 6 described in JP-A-1976-19121 and compound Nos. 18, 19 and 36 described in JP-A-1988-41451. The structures of these comparative compounds are as follows.

[2] = test system: Nilaparvata lugens Stál (brown rice planthopper); test: Insecticidal activity test for Nilaparvata lugens Stál (brown rice planthopper); assay type: in vivo; conditions: active ingredient concentration 100 ppm; sprouting unhulled rice immersed; 10 3-instar larvae; 25° C.; after 6 days; no replication
Method: A wettable powder prepared based on Formulation Example 2 was diluted with water into an active ingredient concentration of 100 ppm. In the solution was immersed sprouting unhulled rice. They were placed in a 60-ml plastic cup. Thereinto were released 10 3-instar larvae of brown rice planthopper. The cup was covered with a lid and placed in a thermostat of 25° C. After 6 days, the number of living insects was counted and the mortality of insect was determined from the calculation formula of the following Mathematical Expression 2. This test was conducted with no replication. Mortality (%)=100−[(number of living insects after 6 days)/(number of tested insects)]×100 [Mathematical Expression 2]
As in the case of Test Example 1, tests similar to the above were conducted using, as comparative compounds, compound Nos. 22 and 23 described in JP-A-1975-29744, compound Nos. 4, 5, 6 described in JP-A-1976-19121 and compound Nos. 18, 19 and 36 described in JP-A-1988-41451.

Structure (SMILES) | control value [1] | mortality [2] [%]
Cc1cc(F)c(OCCCCC(F)(F)F)cc1[S+]([O-])CC(F)(F)F (stereo not drawn) [A-0164] | ≥ 90 | –
[O-][S+](CC(F)(F)F)c1cc(OCCc2ccc(OC(F)(F)F)cc2)c(F)cc1Cl (stereo not drawn) [A-0781] | ≥ 90 | ≥ 90
O=S(=O)(Oc1ccc(CCOc2cc(SCC(F)(F)F)c(Cl)cc2F)cc1)C(F)(F)F [A-0797] | ≥ 90 | ≥ 90
Fc1cc(Cl)c(SCC(F)(F)F)cc1OCCCCCCl [A-0271] | ≥ 90 | ≥ 90
Cc1cc(F)c(OCCCC[Si](C)(C)C)cc1[S+]([O-])CC(F)(F)F (stereo not drawn) [A-1211] | ≥ 90 | ≥ 90
CSCCCCCCOc1cc(SCC(F)(F)F)c(C)cc1F [A-0369] | ≥ 90 | ≥ 90
COc1cc(F)c(OCCCCCOC(C(F)(F)F)(C(F)(F)F)C(F)(F)F)cc1SCC(F)(F)F [A-0223] | ≥ 90 | –
Cc1cc(F)c(OCCCSC(F)(F)F)cc1[S+]([O-])CC(F)(F)F (stereo not drawn) [A-0406] | ≥ 90 | ≥ 90
[O-][S+](CC(F)(F)F)c1cc(OCCCCCOC(C(F)(F)F)(C(F)(F)F)C(F)(F)F)c(F)cc1Cl (racemic) [A-0222] | ≥ 90 | –
Cc1cc(F)c(OCCc2ccc(SC(F)(F)F)cc2)cc1SCC(F)(F)F [A-0786] | ≥ 90 | ≥ 90
Cc1cc(F)c(OCCCCSC(F)(F)F)cc1[S+]([O-])CC(F)(F)F (stereo not drawn) [A-0416] | ≥ 90 | ≥ 90
CC(C)(C)CCCOc1cc([S+]([O-])CC(F)(F)F)c(Cl)cc1F (stereo not drawn) [A-0077] | ≥ 90 | –
Cc1cc(F)c(OCCCCC2CCCCC2)cc1SCC(F)(F)F [A-0346] | ≥ 90 | ≥ 90
Cc1cc(F)c(OCCCC(F)(F)F)cc1[S+]([O-])CC(F)(F)F (stereo not drawn) [A-0160] | ≥ 90 | –
Cc1cc(F)c(OCCC(F)(F)F)cc1[S+]([O-])CC(F)(F)F (stereo not drawn) [A-0157] | ≥ 90 | –
Cc1cc(F)c(OCCC2CCC(C(F)(F)F)CC2)cc1SCC(F)(F)F (stereo not drawn) [A-0324] | ≥ 90 | ≥ 90
Fc1cc(Cl)c(SCC(F)(F)F)cc1OCCc1ccc(C(F)(F)F)cc1 [A-0765] | ≥ 90 | ≥ 90
Cc1ccc(OCCCCC(C)(C)C)cc1[S+]([O-])CC(F)(F)F (stereo not drawn) [A-0092] | ≥ 90 | –
Cc1cc(F)c(OCCCc2c(F)cc(F)cc2F)cc1SCC(F)(F)F [A-0857] | ≥ 90 | ≥ 90
[O-][S+](CC(F)(F)F)c1cc(OCCCCCSC(F)F)c(F)cc1Cl (stereo not drawn) [A-0556] | ≥ 90 | ≥ 90
Cc1cc(F)c(OCCCC(C)(C)C)cc1[S+]([O-])CC(F)(F)F (stereo not drawn) [A-0075] | ≥ 90 | –
Cc1cc(F)c(OCCCCCC(C)(C)C)cc1[S+]([O-])CC(F)(F)F (stereo not drawn) [A-0130] | ≥ 90 | –
FC(F)(F)CSc1cc(OCCCCCSC(F)(F)F)ccc1Cl [A-0446] | ≥ 90 | ≥ 90

Structure (SMILES) | control value [1] | mortality [2] [%]
[O-][S+](CC(F)(F)F)c1cc(OCCc2ccc(SC(F)(F)F)cc2)c(F)cc1Cl (stereo not drawn) [A-0789] | ≥ 90 | ≥ 90
Cc1cc(F)c(OCCc2ccc(F)c(C(F)(F)F)c2)cc1SCC(F)(F)F [A-0813] | ≥ 90 | ≥ 90
CC(C)(C)CCCCCCOc1cc([S+]([O-])CC(F)(F)F)c(Cl)cc1F (stereo not drawn) [A-0144] | ≥ 90 | –
Cc1cc(F)c(OCCCBr)cc1[S+]([O-])CC(F)(F)F (racemic) [A-0262] | ≥ 90 | –
CC(C)CCCCOc1cc([S+]([O-])CC(F)(F)F)c(C#N)cc1F (stereo not drawn) [A-0056] | ≥ 90 | –
C#CCCCOc1cc([S+]([O-])CC(F)(F)F)c(C)cc1F (racemic) [A-0244] | ≥ 90 | –
CC(C)(C)CCCCCOc1cc([S+]([O-])CC(F)(F)F)c(Cl)cc1F (stereo not drawn) [A-0133] | ≥ 90 | –
CC(CCOc1cc(SCC(F)(F)F)c(C#N)cc1F)CC(C)(C)C (stereo not drawn) [A-0125] | ≥ 90 | –
Cc1cc(F)c(OCCC(C)CC(C)(C)C)cc1[S+]([O-])CC(F)(F)F (stereo not drawn) [A-0123] | ≥ 90 | –
COc1cc(F)c(OCCCCCOC(C(F)(F)F)(C(F)(F)F)C(F)(F)F)cc1[S+]([O-])CC(F)(F)F (racemic) [A-0224] | ≥ 90 | –
[O-][S+](CC(F)(F)F)c1cc(OCC(F)(F)C(F)(F)F)c(F)cc1Cl (stereo not drawn) [A-0175] | ≥ 90 | –
[O-][S+](CC(F)(F)F)c1cc(OCCCCCC(F)(F)F)c(F)cc1Cl (stereo not drawn) [A-0170] | ≥ 90 | –
CC(C)(C)CCCCOc1ccc(Cl)c([S+]([O-])CC(F)(F)F)c1 (stereo not drawn) [A-0108] | ≥ 90 | –
Cc1cc(F)c(OCC(F)(F)C(F)(F)C(F)(F)C(F)(F)F)cc1[S+]([O-])CC(F)(F)F (stereo not drawn) [A-0185] | ≥ 90 | –
Cc1cc(F)c(OCCCCC(F)=C(F)F)cc1[S+]([O-])CC(F)(F)F (racemic) [A-0257] | ≥ 90 | –
Cc1cc(F)c(OCCCOC(C(F)(F)F)(C(F)(F)F)C(F)(F)F)cc1[S+]([O-])CC(F)(F)F (stereo not drawn) [A-0212] | ≥ 90 | –
Cc1cc(F)c(OCCCCOC(C(F)(F)F)(C(F)(F)F)C(F)(F)F)cc1[S+]([O-])CC(F)(F)F (stereo not drawn) [A-0216] | ≥ 90 | –
CC(C)(C)CCCCOc1cc([S+]([O-])CC(F)(F)F)c(C#N)cc1F (stereo not drawn) [A-0090] | ≥ 90 | –
CCCCCCOc1cc([S+]([O-])CC(F)(F)F)c(C#N)cc1F (stereo not drawn) [A-0018] | ≥ 90 | –
CC(C)(C)CCCCOc1cc([S+]([O-])CC(F)(F)F)c(Cl)cc1F (stereo not drawn) [A-0088] | ≥ 90 | –
N#Cc1cc(F)c(OCC(F)(F)C(F)(F)C(F)(F)F)cc1[S+]([O-])CC(F)(F)F (stereo not drawn) [A-0181] | ≥ 90 | –
CC(C)(C)CCCCOc1cc(SCC(F)(F)F)c(C#N)cc1F [A-0089] | ≥ 90 | –
Cc1ccc(OCCCCCCC(C)(C)C)cc1[S+]([O-])CC(F)(F)F (stereo not drawn) [A-0147] | ≥ 90 | –

Structure (SMILES) | control value [1] | mortality [2] [%]
CC(C)(C)CCCCCCOc1cc([S+]([O-])CC(F)(F)F)c(C#N)cc1F (stereo not drawn) [A-0145] | ≥ 90 | –
Cc1cc(F)c(OCCCCCCC(C)(C)C)cc1[S+]([O-])CC(F)(F)F (stereo not drawn) [A-0141] | ≥ 90 | –
Cc1cc(F)c(OCCCCCOC(C(F)(F)F)(C(F)(F)F)C(F)(F)F)cc1[S+]([O-])CC(F)(F)F (racemic) [A-0220] | ≥ 90 | –
Cc1cc(F)c(OCCCCCC(F)(F)F)cc1[S+]([O-])CC(F)(F)F (stereo not drawn) [A-0168] | ≥ 90 | –
Cc1cc(F)c(OCC(F)(F)C(F)(F)F)cc1[S+]([O-])CC(F)(F)F (stereo not drawn) [A-0173] | – | ≥ 90
Cc1cc(F)c(OCCCc2ccc(C(C)(C)C)cc2)cc1SCC(F)(F)F [A-0846] | – | ≥ 90
CC(C)CCCOc1cc([S+]([O-])CC(F)(F)F)c(C#N)cc1F (stereo not drawn) [A-0047] | ≥ 90 | –
Fc1cc(Cl)c(SCC(F)(F)F)cc1OCCCCCOCC(F)(F)F [A-0205] | – | ≥ 90
Cc1cc(F)c(OCCCCCOS(=O)(=O)C(F)(F)C(F)(F)C(F)(F)C(F)(F)F)cc1SCC(F)(F)F [A-1037] | – | ≥ 90
Cc1cc(F)c(OCCCCCC(F)(F)F)cc1SCC(F)(F)F [A-0167] | – | ≥ 90
N#Cc1cc(F)c(OCC(F)(F)C(F)(F)C(F)(F)F)cc1SCC(F)(F)F [A-0180] | – | ≥ 90
Cc1cc(F)c(OCCCC(C)C)cc1[S+]([O-])CC(F)(F)F (stereo not drawn) [A-0044] | – | ≥ 90
CC(=NOCCCOc1cc(SCC(F)(F)F)c(C)cc1F)c1ccc(C(F)(F)F)cc1 [A-1009] | – | ≥ 90
Cc1cc(F)c(OCCCCC(C)C)cc1[S+]([O-])CC(F)(F)F (stereo not drawn) [A-0052] | ≥ 90 | –
CC(C)(C)CCCCOc1cc(SCC(F)(F)F)c(Cl)cc1F [A-0087] | – | ≥ 90
Cc1cc(F)c(OCCCCCOC(C(F)(F)F)(C(F)(F)F)C(F)(F)F)cc1SCC(F)(F)F [A-0219] | – | ≥ 90
[O-][S+](CC(F)(F)F)c1cc(OCCCCOC(C(F)(F)F)(C(F)(F)F)C(F)(F)F)c(F)cc1Cl (stereo not drawn) [A-0218] | – | ≥ 90
CC(C)Oc1cc([S+]([O-])CC(F)(F)F)c(C#N)cc1F (stereo not drawn) [A-0005] | – | ≥ 90
[O-][S+](CC(F)(F)F)c1cc(OCC(F)(F)OC(F)(F)C(F)(F)OC(F)(F)F)c(F)cc1Cl (racemic) [A-0230] | – | ≥ 90
Cc1cc(F)c(OCCOCC(F)(F)F)cc1[S+]([O-])CC(F)(F)F (stereo not drawn) [A-0200] | – | ≥ 90
Cc1cc(F)c(OC(C)C)cc1SCC(F)(F)F [A-0006] | – | ≥ 90
CC(C)(C)CCCOc1cc(SCC(F)(F)F)c(C#N)cc1F [A-0078] | ≥ 90 | –
